Changes are numbered by the printed parent chain. These are yes or no findings as the source states them, for the method shown.

In test [1] the target is T1, NDP52(10-126) (human, UniProt Q13137 10-126).
T1 sequence (looked up): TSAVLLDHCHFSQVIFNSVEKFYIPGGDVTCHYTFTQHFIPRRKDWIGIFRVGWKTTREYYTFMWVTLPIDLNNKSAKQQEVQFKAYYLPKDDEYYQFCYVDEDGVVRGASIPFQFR
As to the kind of experiment: ITC. In general terms: Isothermal titration calorimetry measures the heat released or taken up as one component is titrated into another.

The target of test [2] is T1, NDP52(10-126). As to the kind of experiment: crystal structure.
For test [3], the target named is T1, NDP52(10-126). The test can be described thus: AUC.
Test [4] deals with T2, NDP52(10-126) V61E (human) (UniProt Q13137).
T2 sequence: T1 sequence (looked up) with V52E
As to the kind of experiment: ITC.

Test [5] concerns the target T3, NDP52(10-126) Q106E (human) (UniProt Q13137).
T3 sequence: T1 sequence (looked up) with Q97E
As to the kind of experiment: ITC.

Test [6] addresses T4, NDP52(10-126) Y104R (human) (UniProt Q13137).
T4 sequence: T1 sequence (looked up) with Y95R
The test can be described thus: ITC.

Turning to “NAP1(33-75) S37K (from UniProt Q9H6S1 33-75) (domain or fragment)”, the binding result with NDP52(10-126) [1] is “no binding”. For the molecule “NAP1(33-75) A44E (from UniProt Q9H6S1 33-75) (domain or fragment)”, the binding result in the test with NDP52(10-126) [1] is reported as “no binding”.

B1: NDP52(10-126) (domain or fragment, UniProt Q13137 10-126)
chain: T1 sequence (looked up)
As to B1, the binding entry in the test with NDP52(10-126) [2] and in the test with NDP52(10-126) [3] was “no binding” in each case.

With ESVASHFALVTAYEDIKKRLKDSEKENSLLKKRIRFLEEKLIA (domain or fragment, human, UniProt Q9H6S1 33-75, looked up) [NAP1(33-75)], the binding result in test [4], in test [5] and in test [6] was “no binding” throughout.

The values above are taken from doi:10.1101/264085 (bioRxiv, 2018).
